# Data taken from PubChem BioAssay AID2517 (National Center for Advancing Translational Sciences (NCATS), 2010).
# By UniProt entry, the sequences of proteins in these tests, tags left out.
# UniProt P27695, whole entry, looked up: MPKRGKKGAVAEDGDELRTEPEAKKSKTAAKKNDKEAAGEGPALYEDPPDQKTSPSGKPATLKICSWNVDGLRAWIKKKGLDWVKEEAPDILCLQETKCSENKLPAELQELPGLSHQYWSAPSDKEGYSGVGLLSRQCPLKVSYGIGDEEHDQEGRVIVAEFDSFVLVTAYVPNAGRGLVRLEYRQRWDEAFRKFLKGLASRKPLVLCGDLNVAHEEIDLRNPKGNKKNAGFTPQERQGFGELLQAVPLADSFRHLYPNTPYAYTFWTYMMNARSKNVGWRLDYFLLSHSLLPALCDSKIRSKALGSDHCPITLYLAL
# The whole screen tested about 350,000 compounds, of which about 1,200 (0.34%) were called active. Inconclusive results, whose numbers are uncertain, are shown with a selection of clear calls. Calls follow the shape of the dose curve; as a rule, active = well fitted inhibition curve with a large enough effect; inconclusive = small, poorly fitted or top-dose-only effect; inactive = no such curve, though single readings can be large or run the other way. Where the call is inconclusive, the potency comes from a doubtful curve fit.
# Biological target: DNA repair nuclease/redox regulator APEX1 (Homo sapiens) (UniProt P27695)
# Experiment: qHTS Assay for Inhibitors of the Human Apurinic/apyrimidinic Endonuclease 1 (APE1); also: nearly all actives have a fitted effect of over 55% in size;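 as to activity change, negative = inhibition: plate controls were vehicle for no effect and reference inhibitor for full effect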
# Details: recombinant APE1, TAMRA/BHQ-2 abasic DNA cleavage fluorescence; activity change, negative = inhibition: at 65.8 µM (top of the series)
# Procedure, shortened: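 Substrate: short duplex with […] THF abasic site, 5'-TAMRA and 3'-BHQ-2, 50 nM final. APE1 at 0.75 nM, preincubated 15 min RT with compound. Fluorescence increase from first to third read measured activity.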
# Potency is read from the fitted curve at half-maximal effect.
Molecule,Potency,"activity change, negative = inhibition"
CCOC(=O)c1c(NC(=O)/C=C/c2ccco2)sc(C)c1C,"inconclusive: 2.82 µM [inhibitor, partial curve]",
CCC(C)C(=O)OCC1(c2ccc(C)cc2OC(=O)C(C)C)CO1 (stereo not drawn),"inconclusive: 8.91 µM [inhibitor, partial curve]",
C=CCC1C=CC(Oc2ccc(F)cc2C)C(CO)O1 (stereo not drawn),"inconclusive: 8.91 µM [inhibitor, single point]",
O=C1C(c2ccc(F)cc2)N(Cc2ccc3c(c2)OCO3)C(=O)CN1C1CCCCCC1 (stereo not drawn),"inconclusive: 44.7 µM [inhibitor, partial curve, poor fit]",
O=c1cc(C(F)(F)F)[nH]c2c(C(F)(F)F)cccc12,"inconclusive: 3.55 µM [inhibitor, partial curve]",
O=C(CCCN1C(=O)c2ccccc2C1=O)NCCN1C(=O)S/C(=C\c2cccs2)C1=O,"inconclusive: 2.24 µM [inhibitor, partial curve]",
COC(=O)c1cc2cc(OC)ccc2n1C,,inactive: 31.3%
COc1ccc(N/N=C/c2c(C(=O)O)ccc3ccccc23)cc1,"inconclusive: 22.4 µM [inhibitor, single point]",
c1ccc(CN2CCC(N3CCC(N4CCCCCC4)CC3)CC2)cc1,,inactive: 15.5%
O=[N+]([O-])c1ccccc1CSc1ccccn1,"inconclusive: 3.55 µM [inhibitor, single point]",
Cc1cc(C)c(S(=O)(=O)/N=C2\C=C(NS(=O)(=O)c3ccccc3)C(=O)c3ccccc32)c(C)c1,,inactive: -20.1%
c1ccc(-c2nn[nH]n2)c(Nc2cccc3c2CCCC3)c1,"inconclusive: 0.0501 µM [inhibitor, full curve, poor fit]",
COc1cc(SSc2cc(OC)cc([N+](=O)[O-])c2N)c(N)c([N+](=O)[O-])c1,,inactive: -0.591%
C=CCNC(=S)Nc1cccc([N+](=O)[O-])c1,"inconclusive: 44.7 µM [inhibitor, single point]",
Cc1cc(NC(=O)COc2cccc3cccnc23)no1,,inactive: 8.12%
Cc1ccc(/C=C2/Sc3ccc(C(=O)NCc4ccccn4)cc3NC2=O)cc1,,inactive: 5.23%
COc1ccc(-n2ncc3c(N4CCC(C)CC4)ncnc32)cc1,,inactive: -13.9%
COc1ccc(C(C)(C)C)cc1NC(=O)Nc1ccc2c(c1)OCO2,"inconclusive: 28.2 µM [inhibitor, single point]",
O=C1NC(=S)N(C(=O)c2ccc(F)cc2)/C1=C/c1cccnc1,,inactive: -0.151%
COc1cc(C2CC(=O)c3c(ccc4ccccc34)N2)ccc1O (stereo not drawn),"inconclusive: 8.91 µM [inhibitor, single point]",
CC(=O)c1cccc(NC(=O)Nc2ccc(C(=O)N3CCCC3)cc2)c1,"inconclusive: 0.0045 µM [inhibitor, full curve, poor fit]",
Cc1nc2scc(-c3ccccc3)c2c(=O)o1,"inconclusive: 3.16 µM [inhibitor, single point]",
CC(C)(C)n1ncc2c(=O)n(Cc3c(F)cc(Cl)cc3F)cnc21,,inactive: -0.0886%

Molecule,Potency,"activity change, negative = inhibition"
CC(C)N1CCN(Cc2cccc(-n3cccn3)c2)CC1CCO (stereo not drawn),,inactive: -0.225%
C=CCOc1ccc(C=NNc2ccc(S(=O)(=O)Nc3ccccc3C(=O)O)cc2[N+](=O)[O-])cc1OC,"inconclusive: 11.9 µM [inhibitor, single point]",
COc1ccc(C(CC(=O)N2CCCC(C)C2)c2c(OC)cc(OC)c3ccc(=O)oc23)cc1 (stereo not drawn),"inconclusive: 3.55 µM [inhibitor, single point]",
CC1=NOC(=O)/C1=C\c1ccc(-c2ccc(Br)cc2)o1,,inactive: 1.19%
H-GEIKNCSFNISTSIR-OH,"inconclusive: 20 µM [inhibitor, single point]",
Cc1cc(C)cc(OCC(=O)Nc2nc(-c3cccnc3)cs2)c1,,inactive: 1.75%
C#CCOCCOCCOCCNc1nc(N2CCN(C(=O)Cn3cc(CCCN=C(N)N)nn3)CC2)nc(N2CCN(C(=O)Cn3cc(CCCN=C(N)N)nn3)CC2)n1,"inconclusive: 39.8 µM [inhibitor, single point]",
COc1cc(CCC(=O)OCc2nnc(-c3ccccc3)o2)cc(OC)c1OC,"inconclusive: 39.8 µM [inhibitor, single point]",
O=C1NNC(c2ccccc2)=N/C1=C\c1ccccc1Cl,,inactive: -6.53%
c1cn(-c2cc(-c3ccc4c(c3)OCO4)ncn2)cn1,active: 8.91 µM,
O=C(O)c1cc([N+](=O)[O-])ccc1N1CCCCC1,,inactive: 0.652%
COC(=O)c1ccc(S(=O)(=O)N2C3CCC2CC(NC(=O)C2CC2)C3)cc1 (stereo not drawn),,inactive: -3.16%
COc1cccc(-c2nc(NCCN3CCOCC3)c3ccccc3n2)c1O,"inconclusive: 22.4 µM [inhibitor, partial curve]",
COc1ccc(-c2cc(=O)c3c(O)c(OC)c(O[C@@H]4OC(COC5OC(C)C(O)C(O)[C@@H]5O)C(O)C(O)C4O)cc3o2)cc1 (stereo partly drawn),,inactive: -6.94%
O=C(NCCO)c1ccc2nc(-c3ccco3)c(-c3ccco3)nc2c1,"inconclusive: 25.1 µM [inhibitor, partial curve]",
COc1ccc(OC)c(NC(=O)CCN2CCN(CCO)CC2)c1,,inactive: 10.5%
Cc1ccccc1NC(=O)C1Cc2ccccc2CN1C(=O)c1ccco1 (stereo not drawn),,inactive: -1.86%
O=C(c1n[nH]c2ccccc12)N1CCN(S(=O)(=O)c2ccc3ccccc3c2)CC1,"inconclusive: 3.16 µM [inhibitor, full curve, poor fit]",
O=[N+]([O-])c1ccc2c(c1Nc1ccccc1)=NC1(CCCCC1)N=2,"inconclusive: 0.282 µM [inhibitor, full curve]",
Cc1ccc(NC(=O)OCCN2CCN(S(=O)(=O)c3ccc(C)cc3)CCC2=O)cc1,"inconclusive: 56.2 µM [inhibitor, single point]",
Cc1ccc(S(=O)(=O)NCCC(=O)Nc2ccc(C)c(Cl)c2)cc1C,"inconclusive: 5.62 µM [inhibitor, single point]",
COc1ccnc(CS(=O)c2nc3ccc(OC(F)F)cc3[nH]2)c1OC (stereo not drawn),"inconclusive: 12.6 µM [inhibitor, partial curve, poor fit]",
COc1cc(CN(C)C)cc(C=O)c1O,"inconclusive: 44.7 µM [inhibitor, single point]",

# Copied from the list.
# Entry of COc1ccc(OC)c(NC(=O)CCN2CCN(CCO)CC2)c1 under activity change, negative = inhibition: inactive: 10.5%
# Entry of Cc1ccc(NC(=O)OCCN2CCN(S(=O)(=O)c3ccc(C)cc3)CCC2=O)cc1 under Potency: inconclusive: 56.2 µM [inhibitor, single point]
# Entry of COc1cc(SSc2cc(OC)cc([N+](=O)[O-])c2N)c(N)c([N+](=O)[O-])c1 under activity change, negative = inhibition: inactive: -0.591%

# (next part)

Molecule,Potency,"activity change, negative = inhibition"
O=C1CNC(=S)N1CCc1ccc(O)c(O)c1,"inconclusive: 0.126 µM [inhibitor, full curve]",
COc1cccc(N(CC(=O)N2CCN(c3ccccc3OC)CC2)S(C)(=O)=O)c1,,inactive: -2.97%
CN(C(=O)c1c(O)c2ccccc2n(C)c1=O)c1ccccc1,,inactive: -4.75%
O=C(OCC(=O)N1CCc2ccccc21)c1c2c(nc3ccccc13)CCCCC2,"inconclusive: 8.91 µM [inhibitor, full curve, poor fit]",
CCOC(=O)C(CC)Sc1nc2c(c(=O)[nH]c(=O)n2C)n1C/C=C(/C)Cl (stereo not drawn),"inconclusive: 31.6 µM [inhibitor, single point]",
COc1cc(/C=C/C(=O)Nc2nnc(CC(C)(C)C)s2)cc(OC)c1OC,"inconclusive: 39.8 µM [inhibitor, single point]",
COc1ccc(-c2nn(-c3ccccc3)cc2C(=O)Nc2cccc(C(=O)O)c2)cc1[N+](=O)[O-],"inconclusive: 21.2 µM [inhibitor, single point]",
CC1=CC(=O)CC2C1(C)CCC(C)C2(C)CCC(C)CC(=O)O (stereo not drawn),"inconclusive: 35.5 µM [inhibitor, single point]",
Cc1cc(C)c2nc(-c3ccccn3)cc(C(=O)Nc3ccc(S(=O)(=O)Nc4cc(C)on4)cc3)c2c1,"inconclusive: 44.7 µM [inhibitor, single point]",
CSc1ccc(/C=N/n2c(C)nnc2C)cc1,"inconclusive: 2.82 µM [inhibitor, full curve]",
COc1ccc(OC)c2c1sc(=NC(=O)c1cccc(N3C(=O)CCC3=O)c1)n2C,"inconclusive: 31.6 µM [inhibitor, partial curve, poor fit]",
O=C(Nc1ccc(NC(=O)c2ccc3c(c2)OCO3)cc1)c1cccc(Cl)c1,"inconclusive: 0.67 µM [inhibitor, single point]",
Cc1csc(NC(=O)c2cc3c(s2)-c2ccccc2OC3)n1,"inconclusive: 3.16 µM [inhibitor, single point]",
C/C(N)=C(/C#N)C(=O)COC(=O)C1Cc2ccccc2CN1S(C)(=O)=O (stereo not drawn),"inconclusive: 44.7 µM [inhibitor, single point]",
Cc1ccc(NC(=O)CN2C(=O)S/C(=C/c3ccc(-c4cccc(C(=O)O)c4)o3)C2=O)cc1,"inconclusive: 35.5 µM [inhibitor, single point]",
Cn1cc(S(=O)(=O)CC(=O)Nc2ccc3c(c2)OCO3)c2ccccc21,"inconclusive: 22.4 µM [inhibitor, single point]",
COc1cc(C2C3=C(CCCC3=O)Nc3c2c(C)nn3-c2cccc(C)c2)cc(OC)c1O (stereo not drawn),"inconclusive: 20 µM [inhibitor, single point]",
O=C(O)c1cccc(S(=O)(=O)Nc2ccc(S(=O)(=O)N3CCOCC3)cc2)c1,"inconclusive: 44.7 µM [inhibitor, single point]",
O=S(=O)(Nc1ncnc2sc3c(c12)CCC3)c1ccc(Cl)s1,,inactive: 7%
CCN1CCN(CCCNC(=O)CCc2nc(-c3ccc(OC)cc3)no2)CC1,"inconclusive: 0.282 µM [inhibitor, full curve, poor fit]",
O=C(Nc1ccccc1F)C1(c2ccccc2)CC1(Cl)Cl (stereo not drawn),"inconclusive: 44.7 µM [inhibitor, single point]",
CCOc1ccc(NC(=O)C(c2ccccn2)N(C(=O)CCl)c2ccc(OCC)cc2)cc1 (stereo not drawn),"inconclusive: 39.8 µM [inhibitor, single point]",
